Source: the supplement of paper PMC8728848
Some of the results follow.

Columns and labels:
Test in all cases: glycan array binding signal (z-score within array); higher = stronger binding
Settings in all cases: glycan notation: IUPAC condensed, linker removed
Fuc(a1-2)Gal = molecular target: Fuc(a1-2)Gal
Summary of the method: (§1)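 Arrays were curated from the Consortium for Functional Glycomics database, 3228 in total, and kept only where the protein sequence was available. Binding is expressed as a within-array Z-score. This score was averaged across arrays of the same protein sequence at different concentrations or buffers and across linkers, and negative values can be read as non-binding.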

Fuc(a1-2)Gal(b1-3)GalNAc = molecular target: Fuc(a1-2)Gal(b1-3)GalNAc
Summary of the method: as §1

[1] = molecular target: Fuc(a1-2)Gal(b1-3)GalNAc(a1-3)[Fuc(a1-2)]Gal(b1-4)Glc
Summary of the method: as §1

[2] = molecular target: Fuc(a1-2)Gal(b1-3)GalNAc(a1-3)[Fuc(a1-2)]Gal(b1-4)GlcNAc
Summary of the method: as §1

[3] = molecular target: Fuc(a1-2)Gal(b1-3)GalNAc(b1-3)Gal
Summary of the method: as §1

[4] = molecular target: Fuc(a1-2)Gal(b1-3)GalNAc(b1-3)Gal(a1-4)Gal(b1-4)Glc
Summary of the method: as §1

[5] = molecular target: Fuc(a1-2)Gal(b1-3)GalNAc(b1-4)[Neu5Ac(a2-3)]Gal(b1-4)Glc
Summary of the method: as §1

Fuc(a1-2)Gal(b1-3)GlcNAc = molecular target: Fuc(a1-2)Gal(b1-3)GlcNAc
Summary of the method: as §1

[6] = molecular target: Fuc(a1-2)Gal(b1-3)GlcNAc(b1-2)Man(a1-3)[Fuc(a1-2)Gal(b1-3)GlcNAc(b1-2)Man(a1-6)]Man(b1-4)GlcNAc(b1-4)GlcNAc
Summary of the method: as §1

[7] = molecular target: Fuc(a1-2)Gal(b1-3)GlcNAc(b1-2)Man(a1-3)[Fuc(a1-2)Gal(b1-3)GlcNAc(b1-2)Man(a1-6)]Man(b1-4)GlcNAc(b1-4)[Fuc(a1-6)]GlcNAc
Summary of the method: as §1

[8] = molecular target: Fuc(a1-2)Gal(b1-3)GlcNAc(b1-3)Gal(b1-4)Glc
Summary of the method: as §1

[9] = molecular target: Fuc(a1-2)Gal(b1-3)GlcNAc(b1-3)GalNAc
Summary of the method: as §1

[10] = molecular target: Fuc(a1-2)Gal(b1-3)GlcNAc(b1-3)[Fuc(a1-2)Gal(b1-3)GlcNAc(b1-6)]GalNAc
Summary of the method: as §1

[11] = molecular target: Fuc(a1-2)Gal(b1-3)GlcNAc(b1-3)[Gal(b1-4)GlcNAc(b1-6)]Gal(b1-4)Glc
Summary of the method: as §1

[12] = molecular target: Fuc(a1-2)Gal(b1-3)GlcNAc(b1-3)[Neu5Ac(a2-6)Gal(b1-4)GlcNAc(b1-6)]Gal(b1-4)Glc
Summary of the method: as §1

[13] = molecular target: Fuc(a1-2)Gal(b1-3)GlcNAc6S
Summary of the method: as §1

[14] = molecular target: Fuc(a1-2)Gal(b1-3)[Fuc(a1-4)]GlcNAc
Summary of the method: as §1

[15] = molecular target: Fuc(a1-2)Gal(b1-3)[Fuc(a1-4)]GlcNAc(b1-2)Man(a1-3)[Fuc(a1-2)Gal(b1-3)[Fuc(a1-4)]GlcNAc(b1-2)Man(a1-3)]Man(b1-4)GlcNAc(b1-4)GlcNAc
Summary of the method: as §1

[16] = molecular target: Fuc(a1-2)Gal(b1-3)[Fuc(a1-4)]GlcNAc(b1-2)Man(a1-3)[Fuc(a1-2)Gal(b1-3)[Fuc(a1-4)]GlcNAc(b1-2)Man(a1-6)]Man(b1-4)GlcNAc(b1-4)[Fuc(a1-6)]GlcNAc(b1-4)[Fuc(a1-6)]GlcNAc
Summary of the method: as §1

[17] = molecular target: Fuc(a1-2)Gal(b1-3)[Fuc(a1-4)]GlcNAc(b1-3)[Fuc(a1-3)[Gal(b1-4)]GlcNAc(b1-6)]Gal(b1-4)Glc
Summary of the method: as §1

[18] = molecular target: Fuc(a1-2)Gal(b1-3)[Fuc(a1-4)]GlcNAc(b1-3)[Gal(b1-4)GlcNAc(b1-6)]Gal(b1-4)Glc
Summary of the method: as §1

Fuc(a1-2)Gal(b1-4)Glc = molecular target: Fuc(a1-2)Gal(b1-4)Glc
Summary of the method: as §1

Fuc(a1-2)Gal(b1-4)Glc6S = molecular target: Fuc(a1-2)Gal(b1-4)Glc6S
Summary of the method: as §1

Fuc(a1-2)Gal(b1-4)GlcNAc = molecular target: Fuc(a1-2)Gal(b1-4)GlcNAc
Summary of the method: as §1

[19] = molecular target: Fuc(a1-2)Gal(b1-4)GlcNAc(b1-2)Man
Summary of the method: as §1

[20] = molecular target: Fuc(a1-2)Gal(b1-4)GlcNAc(b1-2)Man(a1-3)[Fuc(a1-2)Gal(b1-4)GlcNAc(b1-2)Man(a1-6)]Man(b1-4)GlcNAc(b1-4)GlcNAc
Summary of the method: as §1

[21] = molecular target: Fuc(a1-2)Gal(b1-4)GlcNAc(b1-2)Man(a1-3)[Fuc(a1-2)Gal(b1-4)GlcNAc(b1-2)Man(a1-6)]Man(b1-4)GlcNAc(b1-4)[Fuc(a1-6)]GlcNAc
Summary of the method: as §1

[22] = molecular target: Fuc(a1-2)Gal(b1-4)GlcNAc(b1-2)[Fuc(a1-2)Gal(b1-4)GlcNAc(b1-4)]Man(a1-3)[Fuc(a1-2)Gal(b1-4)GlcNAc(b1-2)Man(a1-6)]Man(b1-4)GlcNAc(b1-4)GlcNAc
Summary of the method: as §1

[23] = molecular target: Fuc(a1-2)Gal(b1-4)GlcNAc(b1-3)Gal(b1-4)GlcNAc
Summary of the method: as §1

[24] = molecular target: Fuc(a1-2)Gal(b1-4)GlcNAc(b1-3)Gal(b1-4)GlcNAc(b1-2)Man(a1-3)[Fuc(a1-2)Gal(b1-4)GlcNAc(b1-3)Gal(b1-4)GlcNAc(b1-2)Man(a1-6)]Man(b1-4)GlcNAc(b1-4)GlcNAc
Summary of the method: as §1

[25] = molecular target: Fuc(a1-2)Gal(b1-4)GlcNAc(b1-3)Gal(b1-4)GlcNAc(b1-3)Gal(b1-4)GlcNAc
Summary of the method: as §1

[26] = molecular target: Fuc(a1-2)Gal(b1-4)GlcNAc(b1-3)GalNAc
Summary of the method: as §1

[27] = molecular target: Fuc(a1-2)Gal(b1-4)GlcNAc(b1-3)[Fuc(a1-2)Gal(b1-4)GlcNAc(b1-6)]GalNAc
Summary of the method: as §1

[28] = molecular target: Fuc(a1-2)Gal(b1-4)GlcNAc(b1-3)[Fuc(a1-3)[Gal(b1-4)]GlcNAc(b1-6)]Gal(b1-4)Glc
Summary of the method: as §1

[29] = molecular target: Fuc(a1-2)Gal(b1-4)GlcNAc(b1-6)GalNAc
Summary of the method: as §1

[30] = molecular target: Fuc(a1-2)Gal(b1-4)GlcNAc6S
Summary of the method: as §1

[31] = molecular target: Fuc(a1-2)Gal(b1-4)[Fuc(a1-3)]GlcNAc
Summary of the method: as §1

[32] = molecular target: Fuc(a1-2)Gal(b1-4)[Fuc(a1-3)]GlcNAc(b1-2)Man(a1-3)[Fuc(a1-2)Gal(b1-4)[Fuc(a1-3)]GlcNAc(b1-2)Man(a1-6)]Man(b1-4)GlcNAc(b1-4)[Fuc(a1-6)]GlcNAc
Summary of the method: as §1

[33] = molecular target: Fuc(a1-2)Gal(b1-4)[Fuc(a1-3)]GlcNAc(b1-2)[Fuc(a1-2)Gal(b1-4)[Fuc(a1-3)]GlcNAc(b1-4)]Man(a1-3)[Fuc(a1-2)Gal(b1-4)[Fuc(a1-3)]GlcNAc(b1-2)Man(a1-6)]Man(b1-4)GlcNAc(b1-4)GlcNAc
Summary of the method: as §1

[34] = molecular target: Fuc(a1-2)Gal(b1-4)[Fuc(a1-3)]GlcNAc(b1-3)Gal(b1-4)[Fuc(a1-3)]GlcNAc
Summary of the method: as §1

[35] = molecular target: Fuc(a1-2)Gal(b1-4)[Fuc(a1-3)]GlcNAc(b1-3)Gal(b1-4)[Fuc(a1-3)]GlcNAc(b1-3)Gal(b1-4)[Fuc(a1-3)]GlcNAc
Summary of the method: as §1

[36] = molecular target: Fuc(a1-2)Gal(b1-4)[Fuc(a1-3)]GlcNAc(b1-3)GalNAc
Summary of the method: as §1

[37] = molecular target: Fuc(a1-2)Gal(b1-4)[Fuc(a1-3)]GlcNAc(b1-3)[Neu5Ac(a2-6)Gal(b1-4)GlcNAc(b1-6)]Gal(b1-4)Glc
Summary of the method: as §1

[38] = molecular target: Fuc(a1-2)Gal3S(b1-4)GlcNAc
Summary of the method: as §1

[39] = molecular target: Fuc(a1-2)Gal6S(b1-3)GlcNAc
Summary of the method: as §1

B1: GS13599A-bth-520-23-520 (Bacteroides thetaiotaomicron) (protein)
chain: SEDTMDRINKDHDHTTSVASRFILADVITSTAFSNASGDINTYASSYIEYEVGVDNQLYYAEVRENEPSSSSTFNNSWNGIYSSLKNARIIIDQCGEGGRDHGNDVTRGMAEVMAAYNCALIADFFGDAPCSQAALVDEKGSPVYMTPKMDTQQEIYTQIISYLDDAIANLQKEDLADVTEQDFLYAGDADKWLKFAYGLKARYTMRLINRSSNKSADYEKVLDYVSKSFTSADDQAAFDIYDSNNINPFYGFYNSRAGFGASTSLGTKLLAYNDPRANRAFFTPIVDKKRSQVAANDPSLVPAPNGSPDQSTSKYGISAFVYAKTAPTLLMSYHELMFLKAEALCRLNRDAEDALKEAVVAGLLNAENSISIAIKELGSGLNTNSSEVITETSAGKYFDDVVKAKYAANPLQETMIQKYLAMWGASGEATETYNDFRRMKGLNENFITLTNPNNSSKFPLRYPYGNSDTAANPEVKAAYGNGDYVYSEPVWWAGGSR
glycan array binding signal (z-score) (Fuc(a1-2)Gal): -0.72 | glycan array binding signal (z-score) (Fuc(a1-2)Gal(b1-3)GalNAc): -0.786 | glycan array binding signal (z-score) [1]: -0.48 | glycan array binding signal (z-score) [2]: -0.502 | glycan array binding signal (z-score) [3]: 1.15 | glycan array binding signal (z-score) [4]: 1.19 | glycan array binding signal (z-score) [5]: -0.05 | glycan array binding signal (z-score) (Fuc(a1-2)Gal(b1-3)GlcNAc): -0.474 | glycan array binding signal (z-score) [6]: -0.072 | glycan array binding signal (z-score) [7]: 1.27 | glycan array binding signal (z-score) [8]: 0.009 | glycan array binding signal (z-score) [9]: -0.401 | glycan array binding signal (z-score) [10]: 0.527 | glycan array binding signal (z-score) [11]: -0.682 | glycan array binding signal (z-score) [12]: -0.573 | glycan array binding signal (z-score) [13]: -0.915 | glycan array binding signal (z-score) [14]: 0.044 | glycan array binding signal (z-score) [15]: 1.38 | glycan array binding signal (z-score) [16]: 0.741 | glycan array binding signal (z-score) [17]: -0.103 | glycan array binding signal (z-score) [18]: -1.06 | glycan array binding signal (z-score) (Fuc(a1-2)Gal(b1-4)Glc): -0.831 | glycan array binding signal (z-score) (Fuc(a1-2)Gal(b1-4)Glc6S): -0.907 | glycan array binding signal (z-score) (Fuc(a1-2)Gal(b1-4)GlcNAc): 0.113 | glycan array binding signal (z-score) [19]: -0.841 | glycan array binding signal (z-score) [20]: 0.686 | glycan array binding signal (z-score) [21]: -0.152 | glycan array binding signal (z-score) [22]: 2.4 | glycan array binding signal (z-score) [23]: -1.07 | glycan array binding signal (z-score) [24]: 0.322 | glycan array binding signal (z-score) [25]: -0.643 | glycan array binding signal (z-score) [26]: -0.631 | glycan array binding signal (z-score) [27]: -1.1 | glycan array binding signal (z-score) [28]: -0.452 | glycan array binding signal (z-score) [29]: 1.22 | glycan array binding signal (z-score) [30]: -0.78 | glycan array binding signal (z-score) [31]: 0.206 | glycan array binding signal (z-score) [32]: 0.272 | glycan array binding signal (z-score) [33]: 1.25 | glycan array binding signal (z-score) [34]: -0.005 | glycan array binding signal (z-score) [35]: -0.474 | glycan array binding signal (z-score) [36]: 1.32 | glycan array binding signal (z-score) [37]: -0.281 | glycan array binding signal (z-score) [38]: 0.058 | glycan array binding signal (z-score) [39]: -0.741
